Source: PMC7819943, “Rice protein-binding microarrays: a tool to detect cis-acting elements near promoter regions in rice”
This is one part of the list.

biological target: T1, OsSMF1 (Oryza sativa, UniProt Q6ZLB0 1-436); experiment: protein-binding microarray (RPBM); PBS, 2% BSA, 51.3 ng/ul salmon testes DNA, 50 uM zinc acetate, 200 nM TF, 25 C, 1 h; high values mean tight binding; conditions: protein: recombinant; tags: N-terminal polyhistidine and DsRed monomer fusion (pET32a); chain copies: 2; label: CyDye5-dUTP incorporated in the synthesized complementary strand; 3' TTTTT single-stranded linker to array surface; dsDNA, one strand shown
T1 sequence: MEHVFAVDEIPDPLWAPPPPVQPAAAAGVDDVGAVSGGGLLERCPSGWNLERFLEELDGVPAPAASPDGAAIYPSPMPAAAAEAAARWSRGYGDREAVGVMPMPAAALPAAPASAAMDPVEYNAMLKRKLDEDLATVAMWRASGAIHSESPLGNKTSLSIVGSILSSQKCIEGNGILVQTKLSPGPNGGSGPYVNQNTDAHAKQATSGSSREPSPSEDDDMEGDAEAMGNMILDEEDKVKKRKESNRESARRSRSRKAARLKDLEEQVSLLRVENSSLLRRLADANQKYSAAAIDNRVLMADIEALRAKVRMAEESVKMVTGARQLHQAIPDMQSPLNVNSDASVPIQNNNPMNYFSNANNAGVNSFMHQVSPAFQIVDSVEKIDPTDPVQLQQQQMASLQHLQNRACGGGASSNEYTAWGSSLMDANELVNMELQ
Procedure, shortened: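 Binding signal here means per-feature fluorescence intensity in arbitrary units. The values were read on an Axon 4000B scanner after a custom Agilent array, double-stranded by primer extension with Cy5-dUTP, was incubated with 200 nM protein at 25 °C for 1 h in PBS with 2% BSA, salmon testes DNA and 50 µM zinc acetate, then washed. The proteins were transcription factors with an N-terminal polyhistidine tag and DsRed, expressed in E. coli BL21-CodonPlus and purified on Ni–NTA.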

| Sequence | binding signal |
| --- | --- |
| CGTGCTCGACCACGCCGGCTCGCCGGCGCGCCGCACCGACCGGAGTCACCTAGTGCAG | 3360 fluorescence intensity (a.u.) |
| TATTTGACTAGTCATGCAATATCTCTAGTGACTATACAAGCGGAGTCACCTAGTGCAG | 3470 fluorescence intensity (a.u.) |
| CCTTGCCACGGTGGGCCGGCTCGGCATGGCCCGATCTAATCGGAGTCACCTAGTGCAG | 3190 fluorescence intensity (a.u.) |
| ACTCGGAGATCTGTGCAAGATGATCATGCACGATATGATCCGGAGTCACCTAGTGCAG | 3190 fluorescence intensity (a.u.) |
| ATAGTTAATTAATGATGCATTAGAAGCCTTAGTAGATTGGCGGAGTCACCTAGTGCAG | 27100 fluorescence intensity (a.u.) |
| AATTTTCATATGCATCATGCTGCACGTGGATCAGAAGCACCGGAGTCACCTAGTGCAG | 3570 fluorescence intensity (a.u.) |
| TTCCTCCAGGTCACCTCCTCCCCTCTCGCTGACTGCGGGACGGAGTCACCTAGTGCAG | 5680 fluorescence intensity (a.u.) |
| TGTGACACGATTTTGCAGTCCACACGAACAGGCCCATCTGCGGAGTCACCTAGTGCAG | 3560 fluorescence intensity (a.u.) |
| GATGAGCTCGTCCACCACGTCGACGCCCCGTCGGTGTGTCCGGAGTCACCTAGTGCAG | 8050 fluorescence intensity (a.u.) |
| CCAAGCACTAATCACGATTAGCCTTCTGACTAATCACACTCGGAGTCACCTAGTGCAG | 5430 fluorescence intensity (a.u.) |
| TAGTACGCTCGGTTCGTGGAACCCCACTCTCCAATCCCCACGGAGTCACCTAGTGCAG | 3480 fluorescence intensity (a.u.) |
| TCCCCTCACGGTGGCGTGACATGCACCAATCTCGCCCCAACGGAGTCACCTAGTGCAG | 3380 fluorescence intensity (a.u.) |
| AGCCACCTCTCTCTCTCCTATCGTTTTGACCACAGAAACCCGGAGTCACCTAGTGCAG | 3210 fluorescence intensity (a.u.) |
| CCGGCCCACGTCAGCCTGCCGCGCCTACCGTTGACTCTCCCGGAGTCACCTAGTGCAG | 20100 fluorescence intensity (a.u.) |
| AATGGCATGCACGTGCTTAATTAATTCCCATTTGCATGTTCGGAGTCACCTAGTGCAG | 3500 fluorescence intensity (a.u.) |
| GTCATGGATCAAATCATCATGTATATCATCCGTCGTCGTGCGGAGTCACCTAGTGCAG | 3180 fluorescence intensity (a.u.) |
| GCCACAAAGCACTCAAATACTTCCTTCAATCATAAATATTCGGAGTCACCTAGTGCAG | 3310 fluorescence intensity (a.u.) |
| CTACTGCCTTTGGTGCATAGTATACACTGCACACACTTAACGGAGTCACCTAGTGCAG | 3630 fluorescence intensity (a.u.) |
| AACATATCTATGAGAATATCTGTTGTTAACAGCTGTGCGTCGGAGTCACCTAGTGCAG | 3490 fluorescence intensity (a.u.) |
| AAATCTGGGCCGCTGCTCTCGAATCTTTCTTTTCCTTTCCCGGAGTCACCTAGTGCAG | 3630 fluorescence intensity (a.u.) |
| CAACTTGCTGGCTATAAAACAACCACATCATCTATATCCCCGGAGTCACCTAGTGCAG | 4810 fluorescence intensity (a.u.) |

| Sequence | binding signal |
| --- | --- |
| AGCTTCAAGATGGTTCTAGAGTGTCACTGAGATGCCTGAACGGAGTCACCTAGTGCAG | 13200 fluorescence intensity (a.u.) |
| GCTCAAGCTCCGTCACTGTAAAAGTATCCTGTATCCAATGCGGAGTCACCTAGTGCAG | 35500 fluorescence intensity (a.u.) |
| CTATCCCATCGTCGCATCGAGCCAACGTAGCCGCCACGTTCGGAGTCACCTAGTGCAG | 34400 fluorescence intensity (a.u.) |
| TATATATATATCACCAATCAAACCTGGCCAAACTTGCTTGCGGAGTCACCTAGTGCAG | 3320 fluorescence intensity (a.u.) |
| GTTTAGAAACCAGGTCATTTGTATCTTGACGATCAACTGGCGGAGTCACCTAGTGCAG | 3680 fluorescence intensity (a.u.) |
| TCGGTTGGTCGATTTTCGGCTGACCGGGCATACCATCTTGCGGAGTCACCTAGTGCAG | 3670 fluorescence intensity (a.u.) |
| CCGCCACCCACTCGCGACCCGCCACGTGTGCAGGACCTGGCGGAGTCACCTAGTGCAG | 18700 fluorescence intensity (a.u.) |
| CGCCACGGCGGACAAAACCGTCGCCACATCGGACAAATCGCGGAGTCACCTAGTGCAG | 8680 fluorescence intensity (a.u.) |
| GCAATGCGTGCGTGGCCGACGTACTCAATTCGTGGGTACACGGAGTCACCTAGTGCAG | 7670 fluorescence intensity (a.u.) |
| ACTCGAAAGTCCATCCCCGGTACGCATGACGCATCAAACCCGGAGTCACCTAGTGCAG | 7310 fluorescence intensity (a.u.) |
| GTCGAAGCGACGCGAGAGCGCGCACACGTGTTCTTCAGCCCGGAGTCACCTAGTGCAG | 7010 fluorescence intensity (a.u.) |
| CTGGGTGGGGCCCACACGTCATCCGCACTGCTTCTAGAACCGGAGTCACCTAGTGCAG | 10800 fluorescence intensity (a.u.) |
| TGGATGCAACAACAGAGCATGACATGACACTACAGGTCAGCGGAGTCACCTAGTGCAG | 6130 fluorescence intensity (a.u.) |
| TCTTCTTCTTCTCCACGTCCCCGGCCTCTCTTCTCGCTCTCGGAGTCACCTAGTGCAG | 8730 fluorescence intensity (a.u.) |
| GACTATCTTCGAGGGGTTGAAGATGACAGTAGACTGTGCACGGAGTCACCTAGTGCAG | 3190 fluorescence intensity (a.u.) |
| CAGATGACAAGTTCGCACGGGCTGACAGGGACAATCGGATCGGAGTCACCTAGTGCAG | 4510 fluorescence intensity (a.u.) |
| ACCTCCGCCTCGTCGCCCGCTTCGCCCATCGCCATCGCGCCGGAGTCACCTAGTGCAG | 3840 fluorescence intensity (a.u.) |
| GGGCTTGTGAACCGGGAGGCGAGGGGAGGGTTATGAGAGTCGGAGTCACCTAGTGCAG | 3680 fluorescence intensity (a.u.) |
| TGGGCCCATAATCGGCCCAGATAACAACCCTCCTCCGCATCGGAGTCACCTAGTGCAG | 4320 fluorescence intensity (a.u.) |
| TCTGGGAGGCCCGCACGGATAGATGCCACGACGATGCAGGCGGAGTCACCTAGTGCAG | 4080 fluorescence intensity (a.u.) |
| TTGCTGATTATTCCACGTCATACAACAACCCATTTTCCAACGGAGTCACCTAGTGCAG | 17900 fluorescence intensity (a.u.) |

Another view of part of the listing above:
CTATCCCATCGTCGCATCGAGCCAACGTAGCCGCCACGTTCGGAGTCACCTAGTGCAG
  binding signal = 34400 fluorescence intensity (a.u.)
GACTATCTTCGAGGGGTTGAAGATGACAGTAGACTGTGCACGGAGTCACCTAGTGCAG
  binding signal = 3190 fluorescence intensity (a.u.)
